Experimental data taken from PubChem BioAssay AID328 (DTP/NCI, 2004).
The list shows only some results of the screen, not a fair sample: its compounds were picked by chemical class. Other doses and runs of a compound may be missing. T/C is the treated group as % of the vehicle group. Some doses have a count of surviving animals in place of a T/C: the source files T/C as zero there, which appears to mark a toxic dose or a test without result, not a measured value. Some doses without a T/C left all or most animals alive at the check, yet need not have been tolerated: the source hardly ever lists a survival T/C far under the control, and the zero likely stands for such cases as well. Counts of survivors are from the toxicity check (mostly the fifth day) where no day follows; animals may have died later. Schedule codes are those of the source, taken here to give the interval after Q, in days (D) or hours (H), and the number of doses after X. Where survival is the endpoint, this PubChem deposit counts one and a half times the control or more as active, and values a quarter to a half above the control carry no call in these data; other NCI protocols may use other cut-offs. Some entries hold several experiments; the values are given in rising order. Some T/C values are marked as having no survivor count here; that says nothing about deaths at the dose. Some T/C values are followed by the survivors on the day toxicity was checked, most often the fifth; where neither a count nor a note follows, no animal had died by that day.

System: BDF1 mice, P388 leukemia ip, median survival T/C
Assay: NCI In Vivo Anticancer Drug Screen. Data for tumor model P388 Leukemia (intraperitoneal) in B6D2F1 (BDF1) mice
Settings: T/C endpoint: median survival time, higher T/C = longer survival
Procedure, shortened: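 T/C = treated-group survival ÷ vehicle-control survival; tumour transplanted into mice before dosing.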

[1] = dose: 0.03 mg/kg/injection, schedule: Q04DX003 (ip), vehicle: saline
[2] = dose: 20.0 mg/kg/injection, schedule: Q04DX003 (ip), vehicle: saline
[3] = dose: 50.0 mg/kg/injection, schedule: Q01DX009 (ip), vehicle: saline with Tween-80
[4] = dose: 100.0 mg/kg/injection, schedule: Q01DX009 (ip), vehicle: saline with Tween-80
[5] = dose: 200.0 mg/kg/injection, schedule: Q01DX009 (ip), vehicle: saline with Tween-80

O[C@H](CNCCBr)[C@@H](O)CNCCBr
T/C (dose: 0.02 mg/kg/injection, schedule: Q04DX003 (ip), vehicle: saline): 109 and 118 % of control
T/C [1]: 118 % of control
survivor count [1]: 6 of 6
T/C (dose: 0.04 mg/kg/injection, schedule: Q01DX009 (ip), vehicle: saline): 147 % of control
T/C (dose: 0.06 mg/kg/injection, schedule: Q04DX003 (ip), vehicle: saline): 263 % of control
T/C (dose: 0.07 mg/kg/injection, schedule: Q01DX009 (ip), vehicle: saline): 150 % of control
T/C (dose: 0.09 mg/kg/injection, schedule: Q04DX003 (ip), vehicle: saline): 272 % of control
survivor count (dose: 0.11 mg/kg/injection, schedule: Q01DX009 (ip), vehicle: saline): 0 of 6
survivor count (dose: 0.17 mg/kg/injection, schedule: Q01DX009 (ip), vehicle: saline): 0 of 6
T/C (dose: 0.22 mg/kg/injection, schedule: Q04DX003 (ip), vehicle: saline): 185 % of control
T/C (dose: 0.27 mg/kg/injection, schedule: Q01DX009 (ip), vehicle: saline): 197 % of control
T/C (dose: 0.34 mg/kg/injection, schedule: Q04DX003 (ip), vehicle: saline): 220 % of control
T/C (dose: 0.4 mg/kg/injection, schedule: Q01DX009 (ip), vehicle: saline): 235 % of control
T/C (dose: 0.52 mg/kg/injection, schedule: Q04DX003 (ip), vehicle: saline): 129 % of control
T/C (dose: 0.62 mg/kg/injection, schedule: Q01DX009 (ip), vehicle: saline): 250 % of control
T/C (dose: 0.79 mg/kg/injection, schedule: Q04DX003 (ip), vehicle: saline): 179 % of control
T/C (dose: 0.9 mg/kg/injection, schedule: Q04DX003 (ip), vehicle: saline): 141 % of control
T/C (dose: 1.25 mg/kg/injection, schedule: Q01DX009 (ip), vehicle: saline): 266 % of control
T/C (dose: 1.4 mg/kg/injection, schedule: Q04DX003 (ip), vehicle: saline): 187 % of control
T/C (dose: 2.5 mg/kg/injection, schedule: Q01DX009 (ip), vehicle: saline): 266 % of control
T/C (dose: 5.0 mg/kg/injection, schedule: Q01DX009 (ip), vehicle: saline): 116 % of control
T/C (dose: 6.6 mg/kg/injection, schedule: Q04DX003 (ip), vehicle: saline): 300 % of control
T/C (dose: 10.0 mg/kg/injection, schedule: Q01DX009 (ip), vehicle: saline): 87 % of control
T/C (dose: 10.0 mg/kg/injection, schedule: Q04DX003 (ip), vehicle: saline): 177 and 300 % of control
T/C (dose: 15.0 mg/kg/injection, schedule: Q04DX003 (ip), vehicle: saline): 200 % of control
survivor count (dose: 20.0 mg/kg/injection, schedule: Q01DX009 (ip), vehicle: saline): 5 of 6
T/C [2]: 90 % of control [5 of 6 alive]
survivor count (dose: 40.0 mg/kg/injection, schedule: Q04DX003 (ip), vehicle: saline): 2 of 6

ClCCN(CCCl)B1OCCO1
T/C (dose: 0.37 mg/kg/injection, schedule: Q01DX005 (ip), vehicle: saline): 133 % of control
T/C (dose: 0.75 mg/kg/injection, schedule: Q01DX005 (ip), vehicle: saline): 125 % of control
T/C (dose: 1.5 mg/kg/injection, schedule: Q01DX005 (ip), vehicle: saline): 150 % of control
T/C (dose: 1.5 mg/kg/injection, schedule: Q01DX009 (ip), vehicle: saline): 186 % of control
T/C (dose: 3.0 mg/kg/injection, schedule: Q01DX009 (ip), vehicle: saline): 218 % of control
T/C (dose: 6.0 mg/kg/injection, schedule: Q01DX009 (ip), vehicle: saline): 245 % of control
T/C [2]: 113 % of control
T/C (dose: 30.0 mg/kg/injection, schedule: Q04DX003 (ip), vehicle: saline): 131 % of control
T/C (dose: 45.0 mg/kg/injection, schedule: Q04DX003 (ip), vehicle: saline): 131 % of control
T/C (dose: 67.0 mg/kg/injection, schedule: Q04DX003 (ip), vehicle: saline): 161 % of control
T/C (dose: 100.0 mg/kg/injection, schedule: Q04DX003 (ip), vehicle: saline): 159 and 196 % of control
T/C (dose: 150.0 mg/kg/injection, schedule: Q04DX003 (ip), vehicle: saline): 223 % of control

N/C(=N\N=C\c1ccc([N+](=O)[O-])o1)N[N+](=O)[O-]
survivor count [3]: 6 of 6
T/C [4]: 100 % of control [5 of 6 alive]
T/C [5]: 86 % of control

O=[N+]([O-])c1ccc2c(Cl)n([N+](=O)[O-])nc2c1
T/C [3]: 86 % of control
survivor count [4]: 6 of 6
survivor count [5]: 6 of 6

COC(=O)c1ccccc1C[N+](C)(CCCl)CCCl
T/C (dose: 0.2 mg/kg/injection, schedule: Q01DX009 (ip), vehicle: saline): 86 % of control
T/C (dose: 0.31 mg/kg/injection, schedule: Q01DX009 (ip), vehicle: saline): 100 % of control
T/C (dose: 0.47 mg/kg/injection, schedule: Q01DX009 (ip), vehicle: saline): 125 % of control
T/C (dose: 0.71 mg/kg/injection, schedule: Q01DX009 (ip), vehicle: saline): 162 % of control
T/C (dose: 1.08 mg/kg/injection, schedule: Q01DX009 (ip), vehicle: saline): 155 % of control
T/C (dose: 2.17 mg/kg/injection, schedule: Q01DX009 (ip), vehicle: saline): 130 % of control
T/C (dose: 2.87 mg/kg/injection, schedule: Q01DX009 (ip), vehicle: saline): 110 and 145 % of control
T/C (dose: 4.35 mg/kg/injection, schedule: Q01DX009 (ip), vehicle: saline): 154 and 155 % of control
T/C (dose: 6.52 mg/kg/injection, schedule: Q01DX009 (ip), vehicle: saline): 145 and 172 % of control
T/C (dose: 7.1 mg/kg/injection, schedule: Q01DX001 (ip), vehicle: saline): 100 % of control
T/C (dose: 9.2 mg/kg/injection, schedule: Q01DX009 (ip), vehicle: saline): 200 % of control
T/C (dose: 10.0 mg/kg/injection, schedule: Q01DX001 (ip), vehicle: saline): 109 % of control
T/C (dose: 10.5 mg/kg/injection, schedule: Q04DX003 (ip), vehicle: saline): 100 % of control
T/C (dose: 16.25 mg/kg/injection, schedule: Q01DX001 (ip), vehicle: saline): 129 % of control
T/C (dose: 21.0 mg/kg/injection, schedule: Q04DX003 (ip), vehicle: saline): 100 % of control
T/C (dose: 21.7 mg/kg/injection, schedule: Q01DX001 (ip), vehicle: saline): 109 % of control

N#C/C(=C\c1ccccc1Cc1ccccn1)c1ccccc1.O=[N+]([O-])c1cc([N+](=O)[O-])c(O)c([N+](=O)[O-])c1
T/C (dose: 100.0 mg/kg/injection, schedule: Q01DX009 (ip), vehicle: Klucel (hydroxypropylcellulose) (HPC)): 95 % of control [survivor count not shown]
T/C (dose: 200.0 mg/kg/injection, schedule: Q01DX009 (ip), vehicle: Klucel (hydroxypropylcellulose) (HPC)): 95 % of control [survivor count not shown]
